Source: PubChem BioAssay AID2685 (National Center for Advancing Translational Sciences (NCATS), 2010)
Some of the results follow. Further columns of the screen follow, without active or inactive calls. Compounds called inactive in the main read-out are mostly missing here. The note in brackets gives the kind of curve behind each potency; many fits are weak.

Assay: qHTS Assay for Lipid Storage Modulators in Drosophila S3 Cells;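 as to cell number change: cells counted by Cell Tracker Red CMTPX staining in the red channel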
Settings: BODIPY lipid droplet fluorescence, 18-24 h; for cell number change: measured here: cell count max response, cells fed with added oleic acid
How it was run: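 Drosophila S3 cells got compounds at several concentrations plus oleic acid (400 uM solution). Laser-scanning cytometry with 488 nm excitation read lipid droplets at 500-530 nm and cells at 575-640 nm. Percent activity was relative to 20 uM Triacsin C.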

[1] = measured here: cell number channel AC50, cells fed with added oleic acid
[2] = measured here: lipid fluorescence (Fed channel) AC50, cells fed with added oleic acid

SMILES | cell number change [%] | AC50 [1] | AC50 [2]
Cc1ccc(NC(=O)CN2C(=O)NC(Cc3c[nH]c4ccccc34)C2=O)cc1 (stereo not drawn) | 33.2 | 1.16 µM [rising, full curve] | 0.92 µM [rising, full curve]
Cc1ccc(-c2cn(-c3ccccc3)c(SCC(=O)NC3CCS(=O)(=O)C3)n2)cc1C (stereo not drawn) | -6.61 | 0.461 µM [rising, single point] | 3.66 µM [falling, partial curve]
CCC(=O)Nc1cc(-c2cc3ccccc3oc2=O)ccc1OC | 102 | 23.1 µM [rising, single point] | 23.1 µM [rising, single point]
O=C(Nc1nc2ccccc2s1)c1cccc(N2C(=O)CCC2=O)c1 | 27.6 | – | –
NNC(=O)c1ccc(CSc2nc3ccccc3[nH]2)cc1 | – | 0.651 µM [rising, partial curve] | –
CC1(c2ccccc2)NC(=O)N(CC(=O)Nc2ccc(C(N)=O)cc2)C1=O (stereo not drawn) | 18.5 | – | –
N#CC1=C2N=C(N)c3ccccc3N2C2=C(C(=O)CCC2)C1c1cccc(Cl)c1 (stereo not drawn) | 5.68 | – | 1.84 µM [rising, full curve, poor fit]
COc1ccc(-c2cc(C(=O)N3CCN(c4ccccc4O)CC3)c3ccccc3n2)cc1 | 6.05 | 0.103 µM [rising, partial curve, poor fit] | 5.8 µM [falling, full curve, poor fit]
OCC#CCSc1nnc(-c2ccc(Br)cc2)o1 | 155 | 23.1 µM [rising, single point] | –
O=C(NC1CC1)c1ccc(N2CCCCC2)c([N+](=O)[O-])c1 | 4.55 | – | –
CCOc1nc(Oc2cccc(C(=O)O)c2)nc(Oc2cccc(C(=O)O)c2)n1 | -9.35 | – | 0.651 µM [rising, full curve]
CCc1cccc(CC)c1NC(=S)Nc1ccc2cn[nH]c2c1 | 11 | – | 20.6 µM [rising, single point]
CCc1ccc(N2CC(O)(c3cccs3)[N+]3=C2SCCC3)cc1 (stereo not drawn) | 49.4 | – | 29.1 µM [rising, partial curve, poor fit]
CCCCNc1nc(=S)n(-c2ccccc2)c(C)c1C(C)=O | -36.9 | 4.61 µM [falling, full curve, poor fit] | –
O=C(O)C(O)C(O)C(O)C(O)C(=O)O (stereo not drawn) (tested in a mixture with another compound) | 7.83 | 0.651 µM [falling, single point] | –
CCOC(=O)C1=C(C)N=C2SC(C)C(=O)N2C1c1ccc(OCC)c(OCC)c1 (stereo not drawn) | 134 | 16.4 µM [rising, partial curve, poor fit] | 1.84 µM [rising, partial curve]
CS(=O)(=O)c1ccc(NS(=O)(=O)c2ccc(Cl)c(C(=O)NCc3ccco3)c2)cc1 | 2.38 | – | 3.66 µM [falling, single point]
Nc1[nH]nc2ncc3cc4ccccc4nc3c12 | -63 | 1.3 µM [falling, full curve, poor fit] | 0.651 µM [falling, full curve]
Cc1nc2sccc2c(=O)n1-c1cccc(Cl)c1 | -7.28 | – | 0.259 µM [rising, full curve, poor fit]
COc1ccc(-c2ccc(-c3nnn(CC(C)=O)n3)cc2)cc1 | 1.28 | – | 5.17 µM [rising, partial curve, poor fit]

SMILES | cell number change [%] | AC50 [1] | AC50 [2]
CCn1c(SCC(=O)Nc2ccc(OC)cc2)nc2nc3c(cc2c1=O)CCCC3 | 17.3 | – | –
CC1CCCC(C)N1C(=O)Cn1cc(/C=C2/C(=O)Nc3ccccc32)c2ccccc21 (stereo not drawn) | – | – | 20.6 µM [falling, partial curve]
CCn1cc(C(=O)N2CCN(c3ccc(F)cc3)CC2)c2cc(OC)c(OC)cc2c1=O | 30.9 | 3.26 µM [rising, full curve] | –
CC1CC(C)CN(CCCn2c(=S)[nH]c3ccccc3c2=O)C1 (stereo not drawn) | -12.5 | 0.13 µM [falling, full curve, poor fit] | 0.00461 µM [falling, full curve, poor fit]
CCOC(=O)C1=C(c2ccccc2)N=C2SCC(=O)N2C1c1ccc(OCC)c(OCC)c1 (stereo not drawn) | -1.93 | – | 3.66 µM [rising, partial curve]
CCOC(=O)c1ccc(N2C(=O)CC(N3CCC(C(=O)OCC)CC3)C2=O)cc1 (stereo not drawn) | -12.4 | – | –
C=CCn1c(C)c(C(C)=O)c(SC)nc1=S | 12 | – | 0.00411 µM [falling, full curve, poor fit]
Cc1ccc(-c2nnn(CC(=O)N(CC(=O)NCC3CCCO3)c3ccccc3)n2)o1 (stereo not drawn) | -96.1 | 25.9 µM [falling, partial curve, poor fit] | –
CC(OC(=O)CSc1ccc([N+](=O)[O-])cc1)C(=O)NC1CC1 (stereo not drawn) | 11.2 | – | 20.6 µM [falling, single point]
COc1ccc(-n2cnc3cc(NC(=O)c4ccco4)ccc32)cc1 | – | – | 3.26 µM [rising, partial curve]
O=C(CCNS(=O)(=O)c1ccccc1)OCC(=O)c1ccc[nH]1 | -6.76 | – | 29.1 µM [falling, single point]
COc1ccc(C(C)=O)cc1CC(=O)NC1CCCCCC1 | 11.2 | – | –
CCCCc1ccc(S(=O)(=O)N/N=C(/C)c2ccncc2)cc1 | – | – | 20.6 µM [falling, single point]
COc1cccc(CNS(=O)(=O)c2cccc(S(=O)(=O)N3CCOCC3)c2)c1 | 32.1 | 29.1 µM [rising, single point] | 29.1 µM [rising, single point]
Cc1cc(NS(=O)(=O)c2ccccc2)c(C)c(Cl)c1O | 16.3 | – | 0.116 µM [falling, single point]
CC(C)(C)NC(=O)CSc1nnnn1C(C)(C)C | -7.66 | 5.8 µM [falling, partial curve] | 4.61 µM [falling, partial curve, poor fit]
Cc1ccnc(Nc2nc(-c3c(C)nc4sccn34)cs2)c1 | 8.11 | – | 11.6 µM [rising, partial curve]
Cc1cccc(-c2noc(C(C)NC(=O)c3ccco3)n2)c1 (stereo not drawn) | -10.9 | – | 0.206 µM [rising, single point]
O=C(c1ccccc1F)N1CCN(c2ccc([N+](=O)[O-])c3ncccc23)CC1 | – | 6.51 µM [rising, single point] | –
CC(c1ccccc1)N1C(=O)CC(Sc2ncccc2C(=O)O)C1=O (stereo not drawn) | – | 0.103 µM [falling, full curve, poor fit] | 1.03 µM [falling, full curve, poor fit]

Complete entries, looked up by structure. Values in the order: cell number change [%] | AC50 [1] | AC50 [2]
`CCn1cc(C(=O)N2CCN(c3ccc(F)cc3)CC2)c2cc(OC)c(OC)cc2c1=O` in the list: 30.9 | 3.26 µM [rising, full curve] | –
`Cc1ccc(NC(=O)CN2C(=O)NC(Cc3c[nH]c4ccccc34)C2=O)cc1` (stereo not drawn) in the list: 33.2 | 1.16 µM [rising, full curve] | 0.92 µM [rising, full curve]
`CC(OC(=O)CSc1ccc([N+](=O)[O-])cc1)C(=O)NC1CC1` (stereo not drawn) in the list: 11.2 | – | 20.6 µM [falling, single point]

Next part.

SMILES | cell number change [%] | AC50 [1] | AC50 [2]
COc1ccc(-c2cc(C(=O)NC(C(=O)O)C(C)C)c(C)o2)cc1OC (stereo not drawn) | -8.67 | – | 3.26 µM [rising, single point]
CC(C)CN(C(=O)COC(=O)c1ccc2c(c1)OCO2)c1c(N)n(Cc2ccccc2)c(=O)[nH]c1=O | 11 | – | 0.366 µM [falling, partial curve, poor fit]
COc1ccc(C)cc1S(=O)(=O)N1CCN(C(=O)c2ncoc2-c2ccccc2F)CC1 | 14.5 | – | 35.5 µM [falling, single point]
COC(=O)c1ccccc1NC(=S)NC(=O)c1ccccc1C | -7.1 | – | 0.326 µM [rising, full curve]
CCOC(=O)c1ccc(S(=O)(=O)N2CCC(C(=O)NCc3ccccc3OC)CC2)cc1 | 44.1 | 20.6 µM [rising, partial curve, poor fit] | 8.2 µM [rising, partial curve]
CN1C=CC(=CC=C2C=CC(=O)C=C2)C=C1 | 7.8 | – | 0.92 µM [falling, full curve, poor fit]
Cc1cc(C)c(S(=O)(=O)c2ccccc2C)c(Oc2ccccc2)n1 | -62.3 | 23.1 µM [falling, single point] | 23.1 µM [falling, single point]
CCCn1c(SCC(=O)NCc2ccco2)nnc1C(C)C | -21.7 | – | 9.2 µM [falling, partial curve, poor fit]
O=C(CSc1nnc(NC(=O)C2CC2)s1)NCc1ccc(F)cc1 | 26.6 | – | 1.64 µM [rising, partial curve]
Cc1[nH]c(C)c(S(=O)(=O)N2CCN(c3ccc(Cl)cc3)CC2)c1C(=O)N1CCCC1 | – | – | 3.66 µM [falling, single point]
CCOC(=O)N1CCN(c2nc(C)c3c(n2)CC(C)CC3=O)CC1 (stereo not drawn) | 71.6 | 1.84 µM [rising, full curve] | 1.46 µM [rising, full curve, poor fit]
O=c1[nH]ncc(NCc2ccc(Cl)cc2)c1Cl | -7.01 | – | 1.3 µM [falling, full curve]
Cc1ccc(Cl)cc1NC(C#N)c1ccccc1 (stereo not drawn) | – | – | 0.517 µM [rising, full curve, poor fit]
CC(C)C(=O)NC(=O)[C@@H]1CCCN1C(=O)/C=C/c1ccccc1 | 14.9 | – | 16.4 µM [rising, single point]
COc1cccc(NC(=O)n2nc(N)cc2-c2ccc(Cl)cc2)c1 | 4.41 | – | –
Cc1ccc(Cn2c(C)c3cnn(CC(=O)NCc4ccccn4)c(=O)c3c2C)cc1 | 9.22 | – | 29.1 µM [rising, single point]
Cc1nc2oc3ccccc3c(=O)c2c(=O)n1Cc1ccccc1 | – | – | 29.1 µM [falling, single point]
CCCCNC(=O)C1(NC(=O)Nc2ccc(C)cc2)CCCCC1 | – | 0.731 µM [falling, single point] | 0.58 µM [falling, single point]
